The record followed here is PubChem BioAssay AID248 (DTP/NCI, 2004).

In this test the test system is L1210 leukemia ip in BDF1 mice, survival T/C. Description: NCI In Vivo Anticancer Drug Screen. Data for tumor model L1210 Leukemia (intraperitoneal) in B6D2F1 (BDF1) mice. The following applies: T/C endpoint: mean survival time, higher T/C = longer survival.
[1] abbreviates: dose: 200.0 mg/kg/injection, schedule: Q04DX003 (ip), vehicle: Klucel (hydroxypropylcellulose) (HPC).
The mark [2] stands for this setting: dose: 400.0 mg/kg/injection, schedule: Q04DX003 (ip), vehicle: Klucel (hydroxypropylcellulose) (HPC).
[3] abbreviates: dose: 100.0 mg/kg/injection, schedule: Q01DX001 (ip), vehicle: saline.
[4] abbreviates: dose: 200.0 mg/kg/injection, schedule: Q01DX001 (ip), vehicle: saline.
[5] abbreviates: dose: 400.0 mg/kg/injection, schedule: Q01DX001 (ip), vehicle: saline.
The mark [6] stands for this setting: dose: 200.0 mg/kg/injection, schedule: Q04DX003 (ip), vehicle: saline.
The mark [7] stands for this setting: dose: 400.0 mg/kg/injection, schedule: Q04DX003 (ip), vehicle: saline.
[8] abbreviates: dose: 400.0 mg/kg/injection, schedule: Q01DX009 (ip), vehicle: saline.
[9] abbreviates: dose: 200.0 mg/kg/injection, schedule: Q01DX Z (ip), vehicle: methylcellulose (MC).
Where [10] appears, read: dose: 400.0 mg/kg/injection, schedule: Q01DX009 (ip), vehicle: saline with Tween-80.
Setting [11] is: dose: 100.0 mg/kg/injection, schedule: Q01DX009 (ip), vehicle: saline.

The list shows only some results of the screen, not a fair sample: it is rich in T/C values a quarter to a half above the control, in often repeated tests (any T/C) and in doses without a T/C. Other doses and runs of a compound stand elsewhere. T/C is the treated group as % of the vehicle group. Some doses have a count of surviving animals in place of a T/C: the source files T/C as zero there, which appears to mark a toxic dose or a test without result, not a measured value. Some doses without a T/C left all or most animals alive at the check, yet need not have been tolerated: survival well below the control is almost never listed, so the zero probably covers shortened survival too. Survivors were counted at the toxicity check, usually on the fifth day, unless a day is given; later deaths do not show. Schedule codes are those of the source, read here as Q, the interval in days (D) or hours (H), X, the number of doses. Some schedules carry Z or #; the key to these is not given. Some structures stand for samples that the source files as different forms (salt, stereo form or complex); doses refer to the form tested. Some doses were run more than once; the results are listed from low to high. For survival time, the PubChem record calls one and a half times the control and up active, and a quarter to a half above the control has no call in these data; cut-offs in other NCI protocols can differ.

In the case of `COc1nccc(SC)n1`, under setting [1], the T/C is 125 % of control. Further, the survivor count was 1 of 6 (dose: 300.0 mg/kg/injection, schedule: Q04DX003 (ip), vehicle: Klucel (hydroxypropylcellulose) (HPC)); 0 of 6 and 1 of 6 under setting [2].
Regarding `S=C(Nc1ccccc1)NC1CCC(CC2CCCCC2)CC1` (stereo not drawn), the survivor count (dose: 300.0 mg/kg/injection, schedule: Q01DX009 (ip), vehicle: Klucel (hydroxypropylcellulose) (HPC)) is 3 of 6 and the survivor count under setting [2] is on record as 3 of 6.
Take `OC12CC[N+](Cc3ccccc3)(CC1)CC2`: the survivor count (dose: 300.0 mg/kg/injection, schedule: Q01DX001 (ip), vehicle: saline) is reported as 0 of 6.
`CN(CCO)Cc1ccc2ccccc2c1`: for the setting “dose: 300.0 mg/kg/injection, schedule: Q01DX015 (ip), vehicle: saline”, the survivor count is on record as 1 of 6.
In the case of `CC(=O)OCC1OC(OC2CCCc3c(O)c4c(c(O)c32)C(=O)c2ccccc2C4=O)C(OC(C)=O)C(OC(C)=O)C1OC(C)=O` (stereo not drawn), the survivor count is 4 of 4 (dose: 5.0 mg/kg/injection, schedule: Q01DX001 (ip), vehicle: saline); 4 of 4 (dose: 10.0 mg/kg/injection, schedule: Q01DX001 (ip), vehicle: saline); 4 of 4 (dose: 20.0 mg/kg/injection, schedule: Q01DX001 (ip), vehicle: saline); 4 of 4 under setting [3]; 4 of 4 under setting [4]; 4 of 4 under setting [5].
As for `CCC(=O)N(N=O)c1ccccc1`, the survivor count is, setting by setting: (dose: 37.5 mg/kg/injection, schedule: Q01DX001 (ip), vehicle: saline) 1 of 6; (dose: 75.0 mg/kg/injection, schedule: Q01DX001 (ip), vehicle: saline) 0 of 6.
For the compound `CCN(CC)CC(=O)N1Cc2ccccc2CCc2ccccc2C1`, the survivor count runs as follows: under setting [6], 0 of 6; under setting [7], 0 of 6.
`CCN1CCc2ccccc2C1c1ccccc1` (stereo not drawn): the survivor count (dose: 200.0 mg/kg/injection, schedule: Q01DX009 (ip), vehicle: saline) is listed as 1 of 6 and the survivor count under setting [8] is 0 of 6.
Regarding `CCCNCCCSCc1ccccc1`, the survivor count reads like this: under setting [4], 0 of 4; under setting [5], 0 of 4.
As for `CCc1c(N)nc(N)nc1Nc1ccc(C)cc1`, the survivor count by setting is: (dose: 25.0 mg/kg/injection, schedule: Q01DX Z (ip), vehicle: methylcellulose (MC)) 6 of 6; (dose: 50.0 mg/kg/injection, schedule: Q01DX Z (ip), vehicle: methylcellulose (MC)) 6 of 6; (dose: 100.0 mg/kg/injection, schedule: Q01DX Z (ip), vehicle: methylcellulose (MC)) 6 of 6; under setting [9], 2 of 6.
As for `CC(=O)[O][Pb]([O]C(C)=O)([O]C(C)=O)[c]1ccccc1`, the survivor count is on record as 3 of 4 (dose: 50.0 mg/kg/injection, schedule: Q01DX001 (ip), vehicle: saline); 3 of 3 (dose: 100.0 mg/kg/injection, schedule: Q01DX009 (ip), vehicle: gum acacia); 3 of 3 (dose: 200.0 mg/kg/injection, schedule: Q01DX009 (ip), vehicle: gum acacia); 0 of 4 under setting [5]; 1 of 3 (dose: 400.0 mg/kg/injection, schedule: Q04DX002 (ip), vehicle: gum acacia).
In the case of `CCOC(O)(C(F)(F)F)C(F)(F)F`, the survivor count is, setting by setting: (dose: 25.0 mg/kg/injection, schedule: Q04DX003 (ip), vehicle: saline with Tween-80) 6 of 6; (dose: 50.0 mg/kg/injection, schedule: Q01DX009 (ip), vehicle: saline with Tween-80) 0 of 6; (dose: 50.0 mg/kg/injection, schedule: Q04DX003 (ip), vehicle: saline with Tween-80) 0 of 6; (dose: 100.0 mg/kg/injection, schedule: Q04DX003 (ip), vehicle: saline with Tween-80) 5 of 6; under setting [4], 2 of 4; (dose: 200.0 mg/kg/injection, schedule: Q04DX003 (ip), vehicle: saline with Tween-80) 0 of 6. In addition, the survivor count under setting [5] is on record as 0 of 4.
As for `O=C(O)C1C(C(=O)O)C2(c3ccccc3)c3ccccc3C12` (stereo not drawn), the survivor count is 1 of 6 (dose: 75.0 mg/kg/injection, schedule: Q01DX001 (ip), vehicle: other); 0 of 6 (dose: 150.0 mg/kg/injection, schedule: Q01DX001 (ip), vehicle: other); 1 of 6 (dose: 300.0 mg/kg/injection, schedule: Q01DX001 (ip), vehicle: other).
On to `S=C(S)N1CCC(CCCC2CCN(C(=S)S)CC2)CC1`, for which the survivor count under setting [10] is 5 of 6.
On to `CC1(C)N=C(N)N=C(N)N1c1cc(Cl)ccc1Cl`, for which the survivor count reads like this: under setting [3], 2 of 6; under setting [11], 1 of 6; (dose: 100.0 mg/kg/injection, schedule: Q04DX003 (ip), vehicle: saline) 5 of 6; under setting [4], 0 of 6; under setting [6], 0 of 6; under setting [5], 0 of 6. Also, the survivor count under setting [7] is recorded as 0 of 6.
As for `CCOC(=O)c1c[nH]n2c(=S)ncnc12`, the survivor count under setting [10] is 3 of 6.
Take `C#CC(C)(C)OCC(O)CCl` (stereo not drawn): under setting [8], the survivor count is on record as 6 of 6.
As to `Nc1ncnc2c1cnn2C1OC(CO)C(O)C1O` (stereo not drawn), the T/C runs as follows: (dose: 13.0 mg/kg/injection, schedule: Q01DX015 (ip), vehicle: carboxymethylcellulose (CMC)) 138 % of control; (dose: 20.0 mg/kg/injection, schedule: Q01DX015 (ip), vehicle: carboxymethylcellulose (CMC)) 126 % of control; (dose: 30.0 mg/kg/injection, schedule: Q01DX015 (ip), vehicle: carboxymethylcellulose (CMC)) 127 % of control; (dose: 45.0 mg/kg/injection, schedule: Q01DX015 (ip), vehicle: carboxymethylcellulose (CMC)) 139 % of control; (dose: 200.0 mg/kg/injection, schedule: Q01DX001 (ip), vehicle: carboxymethylcellulose (CMC)) 130 % of control; (dose: 400.0 mg/kg/injection, schedule: Q01DX001 (ip), vehicle: carboxymethylcellulose (CMC)) 128 % of control.
Take `C=CS(=O)(=O)CCCC`: the survivor count under setting [10] is recorded as 0 of 3.
Turning to `Cc1ccccc1NC(=S)N(C)C`, the survivor count is given as 0 of 6 under setting [1] and 0 of 6 under setting [2].
For the compound `CC(=O)Nc1ccn(C2OC(CO)C(O)C2O)c(=O)n1` (stereo not drawn), the T/C reads like this: (dose: 75.0 mg/kg/injection, schedule: Q01DX009 (ip), vehicle: saline) 133 % of control; under setting [11], 131 % of control.
In the case of `O=c1nccc[nH]1`, the survivor count under setting [7] is reported as 4 of 6.
Consider `CSc1nc(Cl)cc(N2CC2)n1`, for which the survivor count is reported as 6 of 6 (dose: 1.56 mg/kg/injection, schedule: Q01DX009 (ip), vehicle: saline); 0 of 6 (dose: 3.12 mg/kg/injection, schedule: Q04DX003 (ip), vehicle: saline); 3 of 6 (dose: 6.25 mg/kg/injection, schedule: Q01DX001 (ip), vehicle: saline); 0 of 6 under setting [3]; 6 of 6 (dose: 133.0 mg/kg/injection, schedule: Q01DX Z (ip), vehicle: methylcellulose (MC)); 0 of 6 under setting [4]. For the same compound, the survivor count under setting [9] is 1 of 6 and the survivor count under setting [5] is 0 of 6.
`CCOC(=O)CCc1c(C)[nH]c(C(=O)OCC)c1C`: the survivor count (dose: 50.0 mg/kg/injection, schedule: Q04DX003 (ip), vehicle: Klucel (hydroxypropylcellulose) (HPC)) is reported as 0 of 6; the survivor count (dose: 100.0 mg/kg/injection, schedule: Q04DX003 (ip), vehicle: Klucel (hydroxypropylcellulose) (HPC)) is given as 0 of 6; the survivor count under setting [1] was 0 of 6 and 6 of 6.
